Test results reported in publication PMC8216470.
Results are given in words; binding and its absence hold for the method and conditions named. Some entries that bind do so weakly or less than the wild type.

Protein sequences, listed by entry. Tags and fused reporters are not part of them.
UniProt Q6P6J0: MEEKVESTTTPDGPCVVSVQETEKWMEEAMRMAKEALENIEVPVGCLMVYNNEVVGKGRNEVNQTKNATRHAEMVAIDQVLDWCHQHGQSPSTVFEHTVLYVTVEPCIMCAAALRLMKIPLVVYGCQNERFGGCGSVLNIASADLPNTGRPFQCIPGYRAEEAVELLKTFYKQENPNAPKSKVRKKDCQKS

Molecular target: T1, mouse ADAT3 (mouse) (UniProt Q6PAT0)
T1 sequence: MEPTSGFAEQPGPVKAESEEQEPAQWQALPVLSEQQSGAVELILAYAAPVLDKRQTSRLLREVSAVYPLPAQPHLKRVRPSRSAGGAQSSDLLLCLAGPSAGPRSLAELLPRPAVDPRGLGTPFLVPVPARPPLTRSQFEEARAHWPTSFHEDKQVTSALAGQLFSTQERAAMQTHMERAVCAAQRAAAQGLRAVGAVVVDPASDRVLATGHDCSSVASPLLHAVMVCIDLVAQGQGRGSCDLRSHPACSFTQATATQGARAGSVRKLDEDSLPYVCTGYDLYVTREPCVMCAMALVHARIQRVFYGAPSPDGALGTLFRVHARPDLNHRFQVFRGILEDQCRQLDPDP
Experiment: co-expression and co-purification; untagged ADAT2 co-expressed in E. coli BL21(DE3) with His-thioredoxin-ADAT3 (WT or mutant); Talon resin, release by 3C protease overnight at 4°C, HiTrap Q ion exchange, Superdex 200 in 10 mM Tris HCl pH 8.0, 200 mM NaCl, 0.5 mM TCEP

binding: binds
Substance: mouse ADAT2 (from UniProt Q6P6J0 1-191) (enzyme)
